# In PubChem BioAssay AID2685 (National Center for Advancing Translational Sciences (NCATS), 2010):
# Some of the results follow. The main result of the screen is listed elsewhere. These columns were measured beside it and carry no call. Most of these compounds were active or inconclusive in the main read-out, so they are no random draw. The note in brackets gives the kind of curve behind each potency; many fits are weak.
# Assay: qHTS Assay for Lipid Storage Modulators in Drosophila S3 Cells;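 as to cell number change: cells counted by Cell Tracker Red CMTPX staining in the red channel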
# Conditions: BODIPY lipid droplet fluorescence, 18-24 h; for cell number change: measured here: cell count max response, cells fed with added oleic acid
# How it was run: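 Laser-scanning cytometry quantifies lipid droplet accumulation (500–530 nm total intensity; droplet/cell object ratio) in oleic acid-fed (400 uM added) Drosophila S3 cells treated with a concentration series. 20 uM Triacsin C defined 100% inhibition.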
# [1] = measured here: lipid fluorescence (Fed channel) AC50, cells fed with added oleic acid
# [2] = measured here: cell number channel AC50, cells fed with added oleic acid
SMILES,cell number change,AC50 [1],AC50 [2]
Cc1ccc(N(CCC#N)C(=O)CSc2nc3ccccc3c(=O)[nH]2)cc1,16.6%,"5.8 µM [rising, single point]",
O=C(CCS(=O)(=O)c1ccccc1)NC1CCCC1,6.52%,"16.4 µM [rising, single point]",
CC(OC(=O)C1CC(=O)N(Cc2ccco2)C1)C(=O)Nc1cccc(C#N)c1 (stereo not drawn),-14.5%,,
Oc1ccc(/C=N/Nc2ccnc3cc(Cl)ccc23)cc1O,-20.5%,"29.1 µM [falling, single point]",
COCCCn1c(C)nnc1SCC(=O)NNC(=O)COc1ccc(Cl)cc1,,"29.1 µM [rising, single point]",
COc1ccc(-c2cc(C(=O)N3CCCC(C(F)(F)F)C3)c3ccccc3n2)cc1OC (stereo not drawn),4.32%,,
Cc1ccc(-n2ncc3c(=O)n(CC#N)cnc32)cc1C,-15.7%,"0.411 µM [falling, full curve, poor fit]",
COc1ccc(NC(=O)CN(C)C(=O)c2cc(CN3C(=O)c4ccccc4C3=O)ccc2OC)cc1,42.1%,"29.1 µM [rising, single point]","7.31 µM [rising, partial curve]"
COc1ccccc1CNS(=O)(=O)c1c(C)nc2scc(C)n2c1=O,5.65%,"29.1 µM [falling, single point]",
COc1ccc(C(=O)Nc2ccc([N+](=O)[O-])cn2)cc1OC,-50%,"5.8 µM [rising, partial curve]","29.1 µM [falling, single point]"
CC1CCCC(C)N1S(=O)(=O)c1ccc(NC(=O)CCN2C(=O)C3CC=CCC3C2=O)cc1 (stereo not drawn),49%,,"16.4 µM [rising, single point]"
Cc1cc(C)n2cc(CSc3nnnn3-c3ccccc3)nc2n1,-3.5%,"1.3 µM [rising, partial curve]",
COc1ccc(S(=O)(=O)Nc2ccc(Cl)cn2)c(C)c1C,88.1%,"6.51 µM [falling, single point]",
CC1OC(O[C@H]2CC[C@]3(C)C4C=C[C@]56OC[C@@]7(CC[C@@H](C)[C@H](C)C75)[C@H](O)C[C@@]6(C)[C@]4(C)CC[C@H]3C2(C)C)C(OC2OC(CO)C(O)C(O)C2OC2OCC(O)C(O)C2O)C(O)C1O (stereo partly drawn),-18.8%,,
CCN(C(=O)COC(=O)c1cccnc1SC)c1c(N)n(Cc2ccccc2)c(=O)[nH]c1=O,-65.6%,"18.4 µM [falling, partial curve]",
Cc1cc(C)c(C)c(S(=O)(=O)NCc2ccco2)c1C,-29.6%,"0.82 µM [falling, full curve]","0.184 µM [falling, full curve, poor fit]"
CCOC(=O)N1CCC(NC(=O)CS(=O)(=O)Cc2nc(-c3ccc(C)cc3)oc2C)CC1,29.5%,"20.6 µM [rising, partial curve, poor fit]",
CC(=O)N1C(C)c2ccccc2C(C)(C)CC12CCCCC2 (stereo not drawn),-25.6%,"29.1 µM [falling, single point]",
COCCN(C(=O)COC(=O)c1ccc(C)o1)c1c(N)n(Cc2ccccc2)c(=O)[nH]c1=O,-3.21%,,
Cc1ccccc1C(=O)NC(=S)Nc1ccc(N2CCN(C(=O)c3ccccc3)CC2)cc1,4.09%,"2.31 µM [falling, single point]",

SMILES,cell number change,AC50 [1],AC50 [2]
O=C(NCCCN1CCCC1=O)c1cccs1,-0.728%,,
COc1ccccc1CNS(=O)(=O)c1c(C)[nH]c(C)c1C(=O)N1CCCCC1,,"29.1 µM [falling, single point]",
CCN(CC)C(=O)C[n+]1cccc(/C=N/O)c1,,"18.4 µM [rising, single point]",
O=C(Nc1ccncc1)c1ccc(-c2ccccc2)cc1,-54.7%,"13 µM [falling, partial curve]","11.6 µM [falling, partial curve]"
O=C(N[C@@H](c1ccccc1)[C@@H]1C[C@H]1C(=O)NCc1ccccn1)OCc1ccccc1,16.1%,"29.1 µM [rising, single point]",
CCOC(=O)c1sc2nc(C)nc(N3CCN(c4ncccn4)CC3)c2c1C,-20.6%,"2.91 µM [falling, full curve]","0.291 µM [falling, single point]"
COc1cccc(CN(C(=O)Cn2nnc(-c3ccccc3F)n2)C(C(=O)NC(C)(C)C)c2ccncc2)c1 (stereo not drawn),2.46%,"29.1 µM [falling, single point]",
NC(=O)C1CCN(C(=O)CNC(=O)c2ccccc2)CC1,21.4%,"16.4 µM [rising, single point]",
O=C(O)C(F)(F)C(NCc1ccccc1)c1ccccc1 (stereo not drawn),-8.65%,"23.1 µM [falling, partial curve, poor fit]",
Cc1c(Cl)cccc1NC(=O)C1CCN(S(C)(=O)=O)CC1,-11.1%,"7.31 µM [falling, single point]",
COc1ccc(N2C(=O)CC(N3CCN(c4nc5ccccc5s4)CC3)C2=O)cc1 (stereo not drawn),24.7%,"29.1 µM [rising, single point]",
C=CCC(O)(CCN1CCCCC1)c1ccccc1 (stereo not drawn),8.77%,"8.2 µM [rising, partial curve]",
Cc1[nH]c(=O)[nH]c(=O)c1NC(=O)c1ccc(OC(C)C)cc1,26.5%,"16.4 µM [rising, partial curve, poor fit]",
Cc1ccc(C)c(OCc2cc(C(=O)N3CCN(c4cnccn4)CC3)no2)c1,-0.289%,,
COc1ccc(C(C(=O)NCC2CCCO2)N(C(=O)c2snc(C(N)=O)c2N)c2ccccc2C)cc1OC (stereo not drawn),2.17%,,
COc1ccccc1-c1cc(C(F)(F)F)nc(S(=O)(=O)CCCC(=O)N2CCOCC2)n1,-73.7%,"18.4 µM [falling, partial curve]","29.1 µM [falling, single point]"
CCS(=O)(=O)N1CCC(c2nc3ccccc3[nH]2)CC1,-1.83%,"0.58 µM [rising, single point]",
OCCNc1nc2ccccc2n1CCN1CCCCC1,18.4%,"29.1 µM [rising, single point]",
Cc1ccc(S(=O)(=O)CC2CSc3nnc(C)c(=O)n32)cc1 (stereo not drawn),11.6%,"11.6 µM [falling, partial curve]",
COc1ccc(OC)c(N(CC(=O)NCc2ccccc2)S(=O)(=O)c2ccc(OC)c(OC)c2)c1,-13%,"18.4 µM [rising, single point]",

SMILES,cell number change,AC50 [1],AC50 [2]
COc1ccc(C2/C=C\CN(C(=O)NC(C)C)CC(=O)N2Cc2ccc(F)cc2)cc1 (stereo not drawn),18.6%,"0.82 µM [rising, full curve, poor fit]",
CC[C@H]1CN2CCc3cc(OC)c(OC)cc3[C@@H]2C[C@@H]1C[C@H]1NCCc2cc(OC)c(OC)cc21,-31.1%,"10.3 µM [falling, partial curve]","0.326 µM [falling, full curve]"
CN(C)S(=O)(=O)c1cccc(COC(=O)CCNC(=O)c2ccc([N+](=O)[O-])cc2)c1,,"20.6 µM [falling, single point]",
CC1CCN(S(=O)(=O)c2cccc(-c3cn4cc(Cl)ccc4n3)c2)CC1,0.0849%,"6.51 µM [rising, single point]",
CCC(C)(C)NC(=O)Cc1ccc(C)cc1,20.9%,,
Cc1cccc(NC(=S)N2CCN(c3cc(C)ccc3C)CC2)c1,6.11%,"29.1 µM [falling, single point]",
COC(=O)c1ccc(NC(=O)c2ccc(C)cc2)o1,22.3%,"16.4 µM [rising, partial curve]",
O=C(NCCC1=CCCCC1)C1CCC(CNS(=O)(=O)c2ccccc2)CC1 (stereo not drawn),34.8%,,"16.4 µM [rising, single point]"
O=C(CCNC(=O)c1ccccc1Cl)NCCCSc1ccccc1,24%,"6.51 µM [falling, single point]",
Cn1c(SCC(=O)N/N=C/c2ccc([N+](=O)[O-])s2)nnc1-c1ccc(Cl)cc1,-59.9%,"29.1 µM [falling, single point]","20.6 µM [falling, partial curve, poor fit]"
COc1ccc(/C=N/NC(=O)CCc2nc3ccccc3[nH]2)cc1,25.9%,"8.2 µM [rising, partial curve]",
CCC1C(=O)N=C(SCC(=O)Nc2ccc(C(=O)OC)cc2)NC1=O (stereo not drawn),9.36%,,"2.06 µM [rising, single point]"
O=Cc1c(NC2CCCCC2)c2ccccc2[nH]c1=O,11.1%,"29.1 µM [falling, single point]",
O=C1CN(S(=O)(=O)c2ccc(Cl)cc2C(F)(F)F)CCN1,65%,"0.146 µM [falling, partial curve]","29.1 µM [rising, single point]"
CCOC(=O)C1=C(COC(=O)COc2cccc(C)c2C)NC(=O)NC1C (stereo not drawn),-22.1%,"25.9 µM [rising, single point]",
CCc1c(C)sc(NC(=O)c2cc(-c3ccco3)on2)c1C#N,5.21%,"18.4 µM [rising, single point]",
O=C(O)c1cc2c(ccc3ccccc32)o1,,"9.2 µM [rising, single point]",
COc1cc(CN(CC2CCCO2)C(=O)c2ccco2)cc(OC)c1OC (stereo not drawn),,"0.13 µM [falling, partial curve, poor fit]",
CC1CCCCN1C(=O)C12CCC(C)(/C(=N/O)C1)C2(C)C (stereo not drawn),19%,"0.184 µM [falling, full curve, poor fit]",

# A few values from the entries so far.
# O=C(NCCC1=CCCCC1)C1CCC(CNS(=O)(=O)c2ccccc2)CC1 (stereo not drawn) – AC50 [2]: 16.4 µM [rising, single point]
# O=C(O)c1cc2c(ccc3ccccc32)o1 – AC50 [1]: 9.2 µM [rising, single point]
